From patent US20170189504A1, “NOVEL PEPTIDES AND COMBINATION OF PEPTIDES FOR USE IN IMMUNOTHERAPY AGAINST VARIOUS CANCERS” (immatics biotechnologies GmbH, priority 2015, published 2017)
For some of these results: Expression values are those of the mRNA of the gene that encodes the peptide; a gene is named only where it was looked up.

Key:
[1] = system: source genes (mRNA); test: Gene and exon expression of source genes, TCGA tumor samples compared with normal tissue samples (Lonsdale, 2013) (Table 17); design: species or system human; settings: for Target coverage: over-expression category of source gene, LAML: Acute Myeloid Leukemia (N = 173); for Target coverage: over-expression category of source gene, BLCA: Bladder urothelial carcinoma (N = 408); for Target coverage: over-expression category of source gene, BRCA: Breast cancer (N = 1104); for Target coverage: over-expression category of source gene, READ: Colon and rectal adenocarcinoma (N = 167); for Target coverage: over-expression category of source gene, COAD: Colon and rectal adenocarcinoma (N = 462); for Target coverage: over-expression category of source gene, ESCA: Esophageal cancer (N = 185); for Target coverage: over-expression category of source gene, GBM: Glioblastoma multiforme (N = 169); for Target coverage: over-expression category of source gene, LUAD: Lung adenocarcinoma (N = 517); for Target coverage: over-expression category of source gene, LUSC: Lung squamous cell carcinoma (N = 503); for Target coverage: over-expression category of source gene, DLBC: Lymphoid neoplasm diffuse large B-cell lymphoma (N = 48); for Target coverage: over-expression category of source gene, OV: Ovarian serous cystadenocarcinoma (N = 309); for Target coverage: over-expression category of source gene, SKCM: Skin cutaneous melanoma (N = 473); for Target coverage: over-expression category of source gene, STAD: Stomach adenocarcinoma (N = 415); for Target coverage: over-expression category of source gene, UCEC: Uterine corpus endometrial carcinoma (N = 546)
[2] = system: HLA-A*24; test: Identification and relative LC-MS quantitation of HLA-A*24-presented tumor-associated peptides on tissue samples (presentation profiles, Tables 14A, 14B, 16, FIG. 1); design: species or system human; key to Presentation score GC / Presentation score NSCLC / Presentation score PCA / Presentation score GB / Presentation score HCC / Presentation score RCC: specifically presented on tumors (++++); very highly over-presented on tumors compared to a panel of normal tissues (+++); highly over-presented on tumors compared to a panel of normal tissues (++); over-presented on tumors compared to a panel of normal tissues (+); settings: for Presentation score GB: glioblastoma (N = 18) vs panel of normal tissues (N = 70); for Presentation score NSCLC: non-small cell lung cancer (N = 91) vs panel of normal tissues (N = 70); for Peptide Presentation on cancer entities: Table 14A, HLA-A*24-binding tumor-associated peptides, cancer entities on which the peptide was found presented
[3] = system: source genes (mRNA); test: Expression profiling of source genes by in-house RNASeq of tumor and normal tissues (Table 18, FIG. 2); design: species or system human; key: very highly over-expressed in tumors compared to a panel of normal tissues (+++); highly over-expressed in tumors compared to a panel of normal tissues (++); over-expressed in tumors compared to a panel of normal tissues (+); settings: source gene of peptide; for Expression score OSCAR: esophageal cancer incl. gastric-esophageal junction (N = 11) vs panel of normal tissues; for Expression score NHL: non-Hodgkin lymphoma (N = 10) vs panel of normal tissues; for Expression score NSCLC: non-small cell lung cancer (N = 11) vs panel of normal tissues; for Expression score OC: ovarian cancer (N = 12) vs panel of normal tissues; for Expression score SCLC: small cell lung cancer (N = 10) vs panel of normal tissues; for Expression score BRCA: BRCA tumors vs panel of normal tissues; for Expression score UBC: urinary bladder cancer (N = 10) vs panel of normal tissues
[4] = tumor expression more than 2-fold above highest 75% percentile of high and medium risk normal tissues

Substance: 272: peptide found in NCAPD2 (gene looked up) (QYLQDAYSF; listed as Homo sapiens) [compound 272]
- Target coverage: over-expression category of source gene, LAML [1, 4]: A (>=50% of tumors above the cutoff)
- Target coverage: over-expression category of source gene, BLCA [1, 4]: B (>= 20% of tumors above the cutoff, but <50%)
- Target coverage: over-expression category of source gene, BRCA [1, 4]: B (>= 20% of tumors above the cutoff, but <50%)
- Target coverage: over-expression category of source gene, READ [1, 4]: B (>= 20% of tumors above the cutoff, but <50%)
- Target coverage: over-expression category of source gene, COAD [1, 4]: B (>= 20% of tumors above the cutoff, but <50%)
- Target coverage: over-expression category of source gene, ESCA [1, 4]: A (>=50% of tumors above the cutoff)
- Target coverage: over-expression category of source gene, GBM [1, 4]: C (>=5% of tumors above the cutoff, but <20%)
- Target coverage: over-expression category of source gene, LUAD [1, 4]: C (>=5% of tumors above the cutoff, but <20%)
- Target coverage: over-expression category of source gene, LUSC [1, 4]: A (>=50% of tumors above the cutoff)
- Target coverage: over-expression category of source gene, DLBC [1, 4]: B (>= 20% of tumors above the cutoff, but <50%)
- Target coverage: over-expression category of source gene, OV [1, 4]: A (>=50% of tumors above the cutoff)
- Target coverage: over-expression category of source gene, SKCM [1, 4]: B (>= 20% of tumors above the cutoff, but <50%)
- Target coverage: over-expression category of source gene, STAD [1, 4]: A (>=50% of tumors above the cutoff)
- Target coverage: over-expression category of source gene, UCEC [1, 4]: C (>=5% of tumors above the cutoff, but <20%)
- Presentation score GB ([2]; HLA-A*24 peptides): ++++
- Presentation score NSCLC ([2]; HLA-A*24 peptides): ++++
- Peptide Presentation on cancer entities [2]: GB, NSCLC
- Expression score OSCAR [3]: +
- Expression score NHL [3]: +
- Expression score NSCLC [3]: +
- Expression score OC [3]: ++
- Expression score SCLC [3]: +

Substance: 201: peptide found in NDC1 (gene looked up) (IYATEAHVF; listed as Homo sapiens) [compound 201]
- Over-expression category of source gene (target coverage), BLCA ([1]; BLCA = Bladder urothelial carcinoma (N = 408), same cutoff): B (>= 20% of tumors above the cutoff, but <50%)
- Over-expression category of source gene (target coverage), BRCA ([1]; BRCA = Breast cancer (N = 1104), tumors more than 2-fold above highest 75% percentile of normal tissues): A (>=50% of tumors above the cutoff)
- Over-expression category of source gene (target coverage), CHOL ([1]; CHOL = Cholangiocarcinoma (N = 36), same cutoff): B (>= 20% of tumors above the cutoff, but <50%)
- Over-expression category of source gene (target coverage), COAD ([1]; COAD = Colon and rectal adenocarcinoma (N = 462), same cutoff): A (>=50% of tumors above the cutoff)
- Over-expression category of source gene (target coverage), DLBC ([1]; DLBC = Lymphoid neoplasm diffuse large B-cell lymphoma (N = 48), same cutoff): B (>= 20% of tumors above the cutoff, but <50%)
- Over-expression category of source gene (target coverage), ESCA ([1]; ESCA = Esophageal cancer (N = 185), same cutoff): A (>=50% of tumors above the cutoff)
- Over-expression category of source gene (target coverage), GBM ([1]; GBM = Glioblastoma multiforme (N = 169), same cutoff): B (>= 20% of tumors above the cutoff, but <50%)
- Over-expression category of source gene (target coverage), KIRC ([1]; KIRC = Clear cell kidney carcinoma (N = 534), same cutoff): C (>=5% of tumors above the cutoff, but <20%)
- Over-expression category of source gene (target coverage), KIRP ([1]; KIRP = Papillary kidney carcinoma (N = 291), same cutoff): C (>=5% of tumors above the cutoff, but <20%)
- Over-expression category of source gene (target coverage), LAML ([1]; LAML = Acute Myeloid Leukemia (N = 173), same cutoff): A (>=50% of tumors above the cutoff)
- Over-expression category of source gene (target coverage), LIHC ([1]; LIHC = Liver hepatocellular carcinoma (N = 374), same cutoff): C (>=5% of tumors above the cutoff, but <20%)
- Over-expression category of source gene (target coverage), LUAD ([1]; LUAD = Lung adenocarcinoma (N = 517), same cutoff): B (>= 20% of tumors above the cutoff, but <50%)
- Over-expression category of source gene (target coverage), LUSC ([1]; LUSC = Lung squamous cell carcinoma (N = 503), same cutoff): A (>=50% of tumors above the cutoff)
- Over-expression category of source gene (target coverage), OV ([1]; OV = Ovarian serous cystadenocarcinoma (N = 309), same cutoff): A (>=50% of tumors above the cutoff)
- Over-expression category of source gene (target coverage), PAAD ([1]; PAAD = Pancreatic ductal adenocarcinoma (N = 179), same cutoff): C (>=5% of tumors above the cutoff, but <20%)
- Over-expression category of source gene (target coverage), PRAD ([1]; PRAD = Prostate adenocarcinoma (N = 498), same cutoff): C (>=5% of tumors above the cutoff, but <20%)
- Over-expression category of source gene (target coverage), READ ([1]; READ = Colon and rectal adenocarcinoma (N = 167), same cutoff): A (>=50% of tumors above the cutoff)
- Over-expression category of source gene (target coverage), SKCM ([1]; SKCM = Skin cutaneous melanoma (N = 473), same cutoff): B (>= 20% of tumors above the cutoff, but <50%)
- Over-expression category of source gene (target coverage), STAD ([1]; STAD = Stomach adenocarcinoma (N = 415), same cutoff): A (>=50% of tumors above the cutoff)
- Over-expression category of source gene (target coverage), UCEC ([1]; UCEC = Uterine corpus endometrial carcinoma (N = 546), same cutoff): B (>= 20% of tumors above the cutoff, but <50%)
- Presentation score GC ([2]; HLA-A*24 peptides, gastric cancer (N = 44) vs panel of normal tissues (N = 70)): +
- Presentation score GB ([2]; HLA-A*24 peptides): +++
- Presentation score NSCLC ([2]; HLA-A*24 peptides): ++
- Peptide Presentation on cancer entities [2]: GB, GC, NSCLC, HCC, PCA
- Expression score BRCA [3]: +
- Expression score CRC ([3]; colorectal cancer (N = 20) vs panel of normal tissues): +
- Expression score OSCAR [3]: ++
- Expression score GBC_CCC ([3]; gallbladder adenocarcinoma and cholangiocarcinoma (N = 3) vs panel of normal tissues): +
- Expression score GC ([3]; gastric cancer (N = 11) vs panel of normal tissues): +
- Expression score GB ([3]; glioblastoma (N = 24) vs panel of normal tissues): +
- Expression score NHL [3]: ++
- Expression score NSCLC [3]: +
- Expression score OC [3]: ++
- Expression score PC ([3]; pancreatic cancer (N = 26) vs panel of normal tissues): +
- Expression score SCLC [3]: ++
- Expression score UBC [3]: +
- Expression score UEC ([3]; uterine cancer (N = 10) vs panel of normal tissues): +

Substance: 285: peptide found in MSH6 (gene looked up) (HYPPVQVLF; listed as Homo sapiens) [compound 285]
- Target coverage: over-expression category of source gene, LAML [1, 4]: A (>=50% of tumors above the cutoff)
- Target coverage: over-expression category of source gene, BLCA [1, 4]: A (>=50% of tumors above the cutoff)
- Target coverage: over-expression category of source gene, BRCA [1, 4]: A (>=50% of tumors above the cutoff)
- Target coverage: over-expression category of source gene, CHOL ([1]; Cholangiocarcinoma (N = 36), tumor expression more than 2-fold above highest 75% percentile of high and medium risk normal tissues): A (>=50% of tumors above the cutoff)
- Target coverage: over-expression category of source gene, KIRC ([1]; Clear cell kidney carcinoma (N = 534), tumor expression more than 2-fold above highest 75% percentile of high and medium risk normal tissues): A (>=50% of tumors above the cutoff)
- Target coverage: over-expression category of source gene, READ [1, 4]: A (>=50% of tumors above the cutoff)
- Target coverage: over-expression category of source gene, COAD [1, 4]: A (>=50% of tumors above the cutoff)
- Target coverage: over-expression category of source gene, ESCA [1, 4]: A (>=50% of tumors above the cutoff)
- Target coverage: over-expression category of source gene, GBM [1, 4]: A (>=50% of tumors above the cutoff)
- Target coverage: over-expression category of source gene, LIHC ([1]; Liver hepatocellular carcinoma (N = 374), tumor expression more than 2-fold above highest 75% percentile of high and medium risk normal tissues): A (>=50% of tumors above the cutoff)
- Target coverage: over-expression category of source gene, LGG ([1]; Lower grade glioma (N = 534), tumor expression more than 2-fold above highest 75% percentile of high and medium risk normal tissues): B (>= 20% of tumors above the cutoff, but <50%)
- Target coverage: over-expression category of source gene, LUAD [1, 4]: A (>=50% of tumors above the cutoff)
- Target coverage: over-expression category of source gene, LUSC [1, 4]: A (>=50% of tumors above the cutoff)
- Target coverage: over-expression category of source gene, DLBC [1, 4]: A (>=50% of tumors above the cutoff)
- Target coverage: over-expression category of source gene, OV [1, 4]: A (>=50% of tumors above the cutoff)
- Target coverage: over-expression category of source gene, PAAD ([1]; Pancreatic ductal adenocarcinoma (N = 179), tumor expression more than 2-fold above highest 75% percentile of high and medium risk normal tissues): B (>= 20% of tumors above the cutoff, but <50%)
- Target coverage: over-expression category of source gene, KIRP ([1]; Papillary kidney carcinoma (N = 291), tumor expression more than 2-fold above highest 75% percentile of high and medium risk normal tissues): B (>= 20% of tumors above the cutoff, but <50%)
- Target coverage: over-expression category of source gene, PRAD ([1]; Prostate adenocarcinoma (N = 498), tumor expression more than 2-fold above highest 75% percentile of high and medium risk normal tissues): A (>=50% of tumors above the cutoff)
- Target coverage: over-expression category of source gene, SKCM [1, 4]: A (>=50% of tumors above the cutoff)
- Target coverage: over-expression category of source gene, STAD [1, 4]: B (>= 20% of tumors above the cutoff, but <50%)
- Target coverage: over-expression category of source gene, UCEC [1, 4]: A (>=50% of tumors above the cutoff)
- Presentation score GB ([2]; HLA-A*24 peptides): +
- Presentation score NSCLC ([2]; HLA-A*24 peptides): +
- Peptide Presentation on cancer entities [2]: GB, GC, NSCLC, HCC, PCA
- Expression score BRCA [3]: +
- Expression score AML ([3]; acute myeloid leukemia (N = 11) vs panel of normal tissues): +
- Expression score OSCAR [3]: +
- Expression score NHL [3]: +
- Expression score NSCLC [3]: +
- Expression score OC [3]: ++
- Expression score SCLC [3]: ++
- Expression score UBC [3]: +
